This is an account of results in article PMC5355235, “FLT3 activating mutations display differential sensitivity to multiple tyrosine kinase inhibitors” (Oncotarget, 2017).

Structures are written as SMILES. Some results are limits rather than exact numbers.

Experiment [1] deals with BaF3 FLT3 I836S mutant cells. Briefly: MTT growth inhibition assay, BaF3 FLT3 I836S cells. It is filed as cell-based. The settings on record: Mus musculus, no IL-3, 48 h, read-out: Proliferation IC50. As to the method: (§1) Figure 1 Growth of AL mutants in the presence of FLT3 TKI The BaF3 AL mutants were grown in the absence of IL-3 and analyzed by treatment in increasing concentrations of FLT3 TKI for 48 hours, after which growth inhibition was assessed using the MTT assay. Means are representative of at least three independent experiments.
(§2) The cells were grown in the absence of IL3 and analyzed by treatment in increasing concentrations of FLT3 TKI for 48 hours, after which growth inhibition was assessed using the MTT assay. Each experiment was performed at least three times and representative results are shown.
(§3) Based on Trypan Blue exclusion, 2 × 10^4 viable cells were seeded in quadruplicate in a 96-well microtiter plate in the presence or absence of inhibitor for 48 h. The effect of drug activity on cell viability was measured using the 3-(4,5-Dimethylthiazol-2-yl)-2,5-diphenyltetrazolium bromide (MTT) assay according to the manufacturer's instructions (Roche Applied Science, Indianapolis, IN, USA). Following treatment, cells were incubated for 4 h in MTT followed by dissolution in solubilization buffer overnight. Absorbance was measured at 570 nm on a Bio-Rad plate reader (Hercules, CA, USA). […] Results shown are presented as means and are representative of at least three independent experiments.

In experiment [2] the test system is BaF3/ITD cells. Briefly: MTT growth inhibition assay, BaF3 FLT3-ITD cells. It is filed as cell-based. The settings on record: Mus musculus, no IL-3, 48 h, read-out: Proliferation IC50. On the procedure: as §1, §2, §3
Background: Tetrazolium dyes change colour on reduction, which living cells bring about.

The test system of experiment [3] is BaF3 FLT3 I836L+D mutant cells. Briefly: MTT growth inhibition assay, BaF3 FLT3 I836L+D cells. To be noted: Mus musculus, no IL-3, 48 h, read-out: Proliferation IC50. The class given is cell-based. As to the method:
as §1, §2, §3

Experiment [4] concerns BaF3 FLT3 D835N mutant cells. Briefly: MTT growth inhibition assay, BaF3 FLT3 D835N cells. The class given is cell-based. The settings on record: Mus musculus, no IL-3, 48 h, read-out: Proliferation IC50. As to the method:
as §1, §2, §3

Experiment [5] has as its system BaF3 FLT3 D835Y mutant cells. The experiment is described as follows: MTT growth inhibition assay, BaF3 FLT3 D835Y cells. To be noted: Mus musculus, no IL-3, 48 h, read-out: Proliferation IC50. It is filed as cell-based. As to the method:
as §1, §2, §3

Experiment [6] has as its system BaF3 FLT3 D835L+K mutant cells. Briefly: MTT growth inhibition assay, BaF3 FLT3 D835L+K cells. It is filed as cell-based. To be noted: Mus musculus, no IL-3, 48 h, read-out: Proliferation IC50. As to the method:
as §1, §2, §3

Experiment [7] relates to BaF3 FLT3 D835G mutant cells. Briefly: MTT growth inhibition assay, BaF3 FLT3 D835G cells. It is filed as cell-based. The settings on record: Mus musculus, no IL-3, 48 h, read-out: Proliferation IC50. As to the method:
as §1, §2, §3

Experiment [8] deals with BaF3 FLT3 D593D mutant cells. The experiment is described as follows: MTT growth inhibition assay, BaF3 FLT3 D593D cells. It is filed as cell-based. The settings on record: Mus musculus, no IL-3, 48 h, read-out: Proliferation IC50. As to the method:
as §1, §2, §3

Experiment [9] has as its system all FLT3 AL mutants. The settings on record: read-out: FLT3 autophosphorylation IC50, BaF3 cells, 1 h treatment, Western blot. As to the method: Activated FLT3 expression was measured by performing immunoprecipitation, SDS-PAGE and Western blotting as previously described. Specifically, 10^7 cells were washed in medium and treated with inhibitor for 1 h followed by stimulation with 25 ng/ml of FLT3 ligand for 15 minutes where indicated. Cells were washed twice with ice-cold PBS and lysed in 300 µl of NP-40 lysis buffer (150 mM NaCl, 20 mM TrisHCl (pH7.4), 10% glycerol, 1% NP-40, 10 mM EDTA, 100 mM NaF) with 2 mM Na3VO4 and protease inhibitors (Complete Tablets, Roche, Mannheim, Germany) at 4°C for 30 m. Cell lysate was harvested by centrifugation at 13,000 × g for 30 m at 4°C. FLT3 S-18 antibody was incubated with 500 µg lysate overnight at 4°C followed by immunoprecipitation with protein A-agarose beads for 2 h. Beads were washed once in Tris buffered saline with 1% Tween-20 (TBST) and twice in TBS. Samples were boiled in sodium dodecyl sulfate (SDS) sample buffer prior to separating in a 8% SDS-polyacrylamide gel (SDS-PAGE). Proteins were transferred to a polyvinyl diflouride (PVDF) membrane (Millipore, Bedford, MA, USA) and detected by 4G10 phosphotyrosine antibody and anti-FLT3 S-18 antibody. FLT3 was visualized using the Odyssey Infra Red Imaging System from Li-Cor (Lincoln, NE, USA) using AlexaFluor 680 goat anti-mouse and AlexaFluor 800 goat anti-rabbit antibodies. […]

In experiment [10] the test system is BaF3 FLT3 I836T mutant cells. The experiment is described as follows: MTT growth inhibition assay, BaF3 FLT3 I836T cells. The class given is cell-based. The settings on record: Mus musculus, no IL-3, 48 h, read-out: Proliferation IC50. On the procedure:
as §1, §2, §3

For experiment [11], the system named is BaF3 FLT3 D835A mutant cells. Briefly: MTT growth inhibition assay, BaF3 FLT3 D835A cells. It is filed as cell-based. To be noted: Mus musculus, no IL-3, 48 h, read-out: Proliferation IC50. On the procedure: as §1, §2, §3

`CO[C@@H]1[C@H](N(C)C(=O)c2ccccc2)C[C@H]2O[C@]1(C)n1c3ccccc3c3c4c(c5c6ccccc6n2c5c31)C(=O)NC4` [Midostaurin]: the IC50 was 10.2 nM in experiment [1]; 9.3 nM in [2]; 5.2 nM in [3]; 8.4 nM in [4]; 10 nM in experiment [5]; 1 nM in experiment [6]. In addition, the IC50 in experiment [7] is 7.9 nM; in [8] it was 2.4 nM; in experiment [9] it was at most 5 nM; in experiment [10] it was 10 nM; in [11] it was 5 nM.
